PMC7511888, “Dependence of PINK1 accumulation on mitochondrial redox system” (Aging Cell, 2020)
These are yes or no findings as the source states them, for the method shown. In cells and extracts the contact can be indirect. Some results given as binding are weak or reduced against the parent protein; the word gives no strength.

Sequences of proteins named here, by UniProt entry; tags and fusion partners are left off. Residues count along the entry.
UniProt Q9BXM7, residues 78-581: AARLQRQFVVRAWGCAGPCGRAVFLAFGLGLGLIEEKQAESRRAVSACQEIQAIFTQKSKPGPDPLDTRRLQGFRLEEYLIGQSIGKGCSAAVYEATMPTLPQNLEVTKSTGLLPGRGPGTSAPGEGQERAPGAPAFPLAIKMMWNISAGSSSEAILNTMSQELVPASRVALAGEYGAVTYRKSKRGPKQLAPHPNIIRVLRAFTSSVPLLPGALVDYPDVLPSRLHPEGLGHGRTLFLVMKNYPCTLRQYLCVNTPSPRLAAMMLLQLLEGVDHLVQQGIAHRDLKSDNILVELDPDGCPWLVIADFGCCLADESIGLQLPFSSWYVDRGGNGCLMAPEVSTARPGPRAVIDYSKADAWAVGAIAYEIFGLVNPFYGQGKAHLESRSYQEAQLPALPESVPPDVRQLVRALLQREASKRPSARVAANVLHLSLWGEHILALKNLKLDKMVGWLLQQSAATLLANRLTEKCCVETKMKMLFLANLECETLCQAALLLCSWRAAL

T1: CHCHD4 (human (endogenous in HEK293)) (UniProt Q8N4Q1)
T1 sequence: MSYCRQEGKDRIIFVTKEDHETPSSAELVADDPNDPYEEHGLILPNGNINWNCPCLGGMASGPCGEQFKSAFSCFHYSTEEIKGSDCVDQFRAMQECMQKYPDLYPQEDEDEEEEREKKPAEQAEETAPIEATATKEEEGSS


What was measured:
[1] = biological target: T1, CHCHD4 (human (endogenous in HEK293)); experiment: co-IP; endogenous proteins; HEK293 cells treated with CCCP (5 μM) for 2 hr; lysed in 50 mM Tris-HCl pH 7.5, 150 mM NaCl, 1 mM EDTA, 1% Nonidet P-40; precipitated with anti-CHCHD4 antibodies (Fig 3k) or anti-PINK1 antibody (Fig 3l); immunoblot
[2] = biological target: PTEN-induced putative kinase 1 (PINK1) (human (endogenous in HEK293)) (UniProt Q9BXM7); experiment: as above

Molecule	binding [1]	binding [2]
PTEN-induced putative kinase 1 (PINK1) (from UniProt Q9BXM7 78-581)	binds	
CHCHD4 (protein, UniProt Q8N4Q1 1-142) MSYCRQEGKDRIIFVTKEDHETPSSAELVADDPNDPYEEHGLILPNGNINWNCPCLGGMASGPCGEQFKSAFSCFHYSTEEIKGSDCVDQFRAMQECMQKYPDLYPQEDEDEEEEREKKPAEQAEETAPIEATATKEEEGSS		binds
